In this experiment the test system is primary human hepatic stellate cells (donor 1). The experiment is described as follows: percent Bodipy-positive cells; higher = more lipid droplet accumulation. The following applies: 48 h.
Where [1] appears, read: library stock concentration: 10 mM.
Where [2] appears, read: library stock concentration: 3.33 mM.
The mark [3] stands for this setting: library stock concentration: 2 mM.
The mark [4] stands for this setting: library stock concentration: 80 uM.
The mark [5] stands for this setting: library stock concentration: 400 uM.

Several values for one entry are separate records, joined by “and”; a condition that tells them apart may be missing. Equal entries are not always repeated. Structures can show the parent of a compound that is named as a salt. ± gives the standard deviation of the averaged measurements. The list shows a part of the results. Baselines shift from plate to plate; read single values as rough.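 Culture-activated primary human stellate myofibroblasts, where regained lipid droplets signal inactivation. Value: share of Hoechst-counted cells above a per-plate Bodipy cutoff, in duplicate wells, with DMSO negative and nortriptyline positive controls on each plate. Hits: a control-normalized score above the plate's top-tenth-percentile nortriptyline wells, or one of a plate's three best wells. Final well concentrations are not given.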

Turning to `CCC(C)[C@H](NC(=O)[C@H](CCCCN)NC(=O)[C@H](CCCCN)NC(=O)[C@H](C)NC(=O)[C@H](CC(C)C)NC(=O)[C@H](C)NC(=O)[C@H](C)NC(=O)[C@H](CC(C)C)NC(=O)[C@H](C)NC(=O)[C@H](CCCCN)NC(=O)[C@H](CC(C)C)NC(=O)[C@H](CC(N)=O)NC(=O)[C@@H](N)[C@@H](C)CC)C(=O)N[C@@H](CC(C)C)C(N)=O` (some centres undefined) [Mastoparan], for the setting “library stock concentration: 3 mM”, the “percent Bodipy-positive cells” value was determined as 14.6 ± 6.6%.

For `CC(Oc1ccc(O)cc1)(P(=O)(O)O)P(=O)(O)O`, the “percent Bodipy-positive cells” value under setting [1] worked out at 7.42 ± 2.2%.

`C=C1C[C@@H](O)[C@H](/C=C/[C@@H](O)C(C)(C)CCCC)[C@H]1C/C=C\CCCC(=O)O` [9-deoxy-9-methylene-16,16-dimethyl Prostaglandin E2]: the “percent Bodipy-positive cells” value (library stock concentration: 1 mM) worked out at 23.7 ± 10%.

Take `CNCCC=C1c2ccccc2CCc2ccccc21.Cl`: the “percent Bodipy-positive cells” value under setting [1] amounted to 98.4 ± 1.4%.

Take `Cc1c(Cl)cccc1Nc1ccccc1C(=O)O` [Tolfenamic Acid]: the “percent Bodipy-positive cells” value is, setting by setting: under setting [2], 9.68 ± 2.1%; under setting [1], 14.7 ± 8.4%.

Regarding `Cc1c(Cl)cccc1Nc1ccccc1C(=O)O` [Tolfenamic acid], the “percent Bodipy-positive cells” value worked out at 24.6 ± 3.8%. Also, the “percent Bodipy-positive cells” value (library stock concentration: 7.6 mM) was 8.91 ± 2.2%. Besides, under setting [1], the “percent Bodipy-positive cells” value amounted to 15.9 ± 2.9%.

Take `CCCSc1ccc2[nH]c(NC(=O)OC)nc2c1` [Albendazole]: the “percent Bodipy-positive cells” value was 39.84 ± 0.22%. Besides, the “percent Bodipy-positive cells” value under setting [2] was 20.9 ± 5.3%. Moreover, the “percent Bodipy-positive cells” value (library stock concentration: 7.5 mM) is 36.3% and 16.3%.

For the compound `COc1cc(F)c(C(C)C)cc1-c1ccc(C(F)(F)F)cc1CN1C(=O)O[C@H](c2cc(C(F)(F)F)cc(C(F)(F)F)c2)[C@@H]1C` [Anacetrapib (MK-0859)], the “percent Bodipy-positive cells” value reads like this: under setting [2], 5.81 ± 0.97%; under setting [1], 10.1 ± 2.6%.

For `CO[C@H]1/C=C/O[C@@]2(C)Oc3c(C)c(O)c4c(O)c(c(/C=N/N5CCN(C)CC5)c(O)c4c3C2=O)NC(=O)/C(C)=C\C=C\[C@H](C)[C@H](O)[C@@H](C)[C@@H](O)[C@@H](C)[C@H](OC(C)=O)[C@@H]1C` [Rifampin], the “percent Bodipy-positive cells” value is, setting by setting: under setting [2], 8.14 ± 3.4%; under setting [1], 13.1% and 10.1%.

As to `CO[C@H]1/C=C/O[C@@]2(C)Oc3c(C)c(O)c4c(O)c(c(/C=N/N5CCN(C)CC5)c(O)c4c3C2=O)NC(=O)/C(C)=C\C=C\[C@H](C)[C@H](O)[C@@H](C)[C@@H](O)[C@@H](C)[C@H](OC(C)=O)[C@@H]1C` [Rifampicin], the “percent Bodipy-positive cells” value was found to be 23.1 ± 7.3%.

Consider `CO[C@H]1/C=C/O[C@@]2(C)Oc3c(C)c(O)c4c(O)c(c(/C=N/N5CCN(C)CC5)c(O)c4c3C2=O)NC(=O)/C(C)=C\C=C\[C@H](C)[C@H](O)[C@@H](C)[C@@H](O)[C@@H](C)[C@H](OC(C)=O)[C@@H]1C`, for which the “percent Bodipy-positive cells” value under setting [1] was determined as 20.6 ± 6.2%.

Regarding `CC(C)NCC(O)c1ccc(O)c(O)c1` (racemic) [Isoproterenol HCl (rac)], the “percent Bodipy-positive cells” value (library stock concentration: 9.5 mM) came out at 8.59 ± 0.58%.

`Cc1n[nH]c2ccc(-c3cncc(OC[C@@H](N)Cc4ccccc4)c3)cc12`: under setting [2], the “percent Bodipy-positive cells” value was found to be 98.1 ± 1.4%.

Take `CC(C)(C)c1ccc(/C=C/C(=O)Nc2ccc3c(c2)OCCO3)cc1`: the “percent Bodipy-positive cells” value under setting [1] was 32.2% and 9.83%.

For the compound `CC[n+]1c(/C=C/C=C2/N(C)c3ccccc3C2(C)C)sc2ccccc21`, under setting [1], the “percent Bodipy-positive cells” value worked out at 100%.

With `CCc1ccc(CCOc2ccc(CC3SC(=O)NC3=O)cc2)nc1` (centres undefined), the “percent Bodipy-positive cells” value under setting [1] stood at 10.2 ± 2.9%.

On to `CCc1ccc(CCOc2ccc(CC3SC(=O)NC3=O)cc2)nc1` (centres undefined) [Pioglitazone hydrochloride], for which the “percent Bodipy-positive cells” value (library stock concentration: 5.1 mM) was found to be 14.9 ± 8.4% and the “percent Bodipy-positive cells” value under setting [1] came out at 44.8 ± 11%.

`CCc1ccc(CCOc2ccc(CC3SC(=O)NC3=O)cc2)nc1` (centres undefined) [Pioglitazone]: the “percent Bodipy-positive cells” value runs as follows: under setting [2], 9.89 ± 1.4%; under setting [1], 20.5 ± 8.1%.

For `CCc1ccc(CCOc2ccc(CC3SC(=O)NC3=O)cc2)nc1` (centres undefined) [Pioglitazone HCl], the “percent Bodipy-positive cells” value was 12.1 ± 1.6% under setting [2] and 17.3 ± 4.1% under setting [1].

Turning to `O=C(O)c1ccccc1-c1c2cc(I)c(=O)c(I)c-2oc2c(I)c(O)c(I)cc12`, the “percent Bodipy-positive cells” value under setting [1] stood at 33.3 ± 0.84%.

Consider `Cc1[nH]c(/C=C2\C(=O)Nc3ccc(S(=O)(=O)N(C)c4cccc(Cl)c4)cc32)c(C)c1C(=O)N1CCN(C)CC1` [Met Kinase Inhibitor], for which the “percent Bodipy-positive cells” value under setting [2] stood at 100%.

Turning to `CNC[C@@H](O)c1ccc(O)c(O)c1` [L-Adrenaline], the “percent Bodipy-positive cells” value is, setting by setting: under setting [2], 5.76 ± 0.41%; under setting [1], 9.52 ± 2.9%.

As for `O=C1c2c(O)cc(CO)cc2C(OC2OC(CO)C(O)C(O)C2O)c2cccc(OC3OC(CO)C(O)C(O)C3O)c21` (centres undefined) [CASANTHRANOL [cascaroside A shown]], under setting [1], the “percent Bodipy-positive cells” value amounted to 26.1 ± 7.3%.

As for `COc1c(C)cnc(Cn2cnc3c(Cl)nc(N)nc32)c1C`, the “percent Bodipy-positive cells” value under setting [2] turned out to be 64.7 ± 5.3%.

With `Cc1ccc(S(=O)(=O)C=CC#N)cc1`, the “percent Bodipy-positive cells” value amounted to 99.6 ± 0.56% under setting [2] and 67.1 ± 14% under setting [1].

Take `CN(C)C/C=C/C(=O)Nc1cc2c(Nc3ccc(F)c(Cl)c3)ncnc2cc1O[C@H]1CCOC1` [Afatinib  (TOVOK,  BIBW-2992) (2 mM)]: the “percent Bodipy-positive cells” value under setting [3] turned out to be 100%.

Regarding `Cc1ccc(N(CC2=NCCN2)c2cccc(O)c2)cc1` [Phentolamine mesylate], under setting [1], the “percent Bodipy-positive cells” value was found to be 27.4 ± 4.9%.

`Cc1ccc(N(CC2=NCCN2)c2cccc(O)c2)cc1` [Phentolamine]: the “percent Bodipy-positive cells” value (library stock concentration: 17.8 mM) came to 42 ± 4.1%.

Take `Cc1ccc(N(CC2=NCCN2)c2cccc(O)c2)cc1` [Phentolamine?Mono-hydrochloride]: the “percent Bodipy-positive cells” value under setting [1] amounted to 69.14 ± 0.42%.

With `Cc1ccc(N(CC2=NCCN2)c2cccc(O)c2)cc1` [Phentolamine Mesylate], the “percent Bodipy-positive cells” value under setting [2] amounted to 11.22 ± 0.099% and the “percent Bodipy-positive cells” value under setting [1] came to 37.5 ± 10%.

Take `Cc1ccc(N(CC2=NCCN2)c2cccc(O)c2)cc1` [PhentolamineHCl]: the “percent Bodipy-positive cells” value (library stock concentration: 7.1 mM) worked out at 10.7 ± 0.43%.

`Cc1ccc(N(CC2=NCCN2)c2cccc(O)c2)cc1` [Phentolamine hydrochloride]: the “percent Bodipy-positive cells” value amounted to 32.9 ± 1.4%. Besides, the “percent Bodipy-positive cells” value (library stock concentration: 6.3 mM) was 32.4 ± 6.3%. Further, the “percent Bodipy-positive cells” value under setting [1] came out at 19.5 ± 3.5%.

Take `Clc1ccc2c(c1)C(N1CCNCC1)=Nc1ccccc1O2` [Amoxapine]: the “percent Bodipy-positive cells” value (library stock concentration: 6.4 mM) was determined as 70.5 ± 15%.

As to `Clc1ccc2c(c1)C(N1CCNCC1)=Nc1ccccc1O2`, under setting [1], the “percent Bodipy-positive cells” value stood at 92.16 ± 0.15%.

For `COc1cc(O)c2c(c1)/C=C/C[C@H](O)[C@H](O)C(=O)/C=C\C[C@H](C)OC2=O` [5z-7-oxozeaenol], the “percent Bodipy-positive cells” value turned out to be 6.05 ± 2.4% under setting [4], 6.24 ± 0.41% under setting [5], 5.09 ± 0.87% under setting [3] and 60.9 ± 11% under setting [1].

For the compound `O=C(O)CCCc1c[nH]c2ccccc12` [3-Indolebutyric acid (IBA)], the “percent Bodipy-positive cells” value reads like this: under setting [2], 11.832 ± 0.0064%; under setting [1], 17 ± 2.9%.

As for `O=C(c1cc(Cc2n[nH]c(=O)c3ccccc23)ccc1F)N1CCN(C(=O)C2CC2)CC1` [Olaparib], the “percent Bodipy-positive cells” value was 25.3 ± 16% under setting [4], 26.8 ± 17% under setting [5], 29.5 ± 19% under setting [3] and 25.9 ± 17% under setting [1].

Turning to `O=C(c1cc(Cc2n[nH]c(=O)c3ccccc23)ccc1F)N1CCN(C(=O)C2CC2)CC1`, the “percent Bodipy-positive cells” value is, setting by setting: under setting [2], 4.61 ± 4.7%; under setting [1], 12.4 ± 4.2%.

Regarding `O=C1c2ccccc2C(=O)C1c1ccccc1` [Phenindione], the “percent Bodipy-positive cells” value was determined as 25.2 ± 5.3%. Moreover, the “percent Bodipy-positive cells” value under setting [2] came out at 27.1 ± 7.8%. Also, the “percent Bodipy-positive cells” value (library stock concentration: 9 mM) is 4.28 ± 0.017%. In addition, the “percent Bodipy-positive cells” value under setting [1] was 18.9% and 17.2%.

Turning to `CC1(C)CC(=O)c2c(ccc(C(=O)CC(N)CO)c2N)O1` (centres undefined), under setting [1], the “percent Bodipy-positive cells” value was determined as 77.4 ± 1.1%.

Regarding `Cc1cc(C=C2C(=O)C=CC2=O)cc(C)c1O`, the “percent Bodipy-positive cells” value under setting [4] turned out to be 13.2 ± 11%, the “percent Bodipy-positive cells” value under setting [5] came out at 29.6 ± 9.4%, the “percent Bodipy-positive cells” value under setting [3] is 84.8 ± 1.6% and the “percent Bodipy-positive cells” value under setting [2] was found to be 84.33 ± 0.17%.

In the case of `O=C(O)CCc1nc(-c2ccccc2)c(-c2ccccc2)o1`, under setting [1], the “percent Bodipy-positive cells” value was 10.4 ± 2.2%.

As for `O=C(O)CCc1nc(-c2ccccc2)c(-c2ccccc2)o1` [Oxaprozin], the “percent Bodipy-positive cells” value was found to be 8.62 ± 1.8%. Under setting [2], the “percent Bodipy-positive cells” value turned out to be 8.24 ± 0.78%. Where the note is “library stock concentration: 6.8 mM”, the “percent Bodipy-positive cells” value amounted to 9.92 ± 3.4%.

The record behind these values is the supplement of paper PMC9135407.
